This is an account of results in article PMC11317454.

Chains of the proteins cited; added tags and fusions are not shown.
UniProt Q92794: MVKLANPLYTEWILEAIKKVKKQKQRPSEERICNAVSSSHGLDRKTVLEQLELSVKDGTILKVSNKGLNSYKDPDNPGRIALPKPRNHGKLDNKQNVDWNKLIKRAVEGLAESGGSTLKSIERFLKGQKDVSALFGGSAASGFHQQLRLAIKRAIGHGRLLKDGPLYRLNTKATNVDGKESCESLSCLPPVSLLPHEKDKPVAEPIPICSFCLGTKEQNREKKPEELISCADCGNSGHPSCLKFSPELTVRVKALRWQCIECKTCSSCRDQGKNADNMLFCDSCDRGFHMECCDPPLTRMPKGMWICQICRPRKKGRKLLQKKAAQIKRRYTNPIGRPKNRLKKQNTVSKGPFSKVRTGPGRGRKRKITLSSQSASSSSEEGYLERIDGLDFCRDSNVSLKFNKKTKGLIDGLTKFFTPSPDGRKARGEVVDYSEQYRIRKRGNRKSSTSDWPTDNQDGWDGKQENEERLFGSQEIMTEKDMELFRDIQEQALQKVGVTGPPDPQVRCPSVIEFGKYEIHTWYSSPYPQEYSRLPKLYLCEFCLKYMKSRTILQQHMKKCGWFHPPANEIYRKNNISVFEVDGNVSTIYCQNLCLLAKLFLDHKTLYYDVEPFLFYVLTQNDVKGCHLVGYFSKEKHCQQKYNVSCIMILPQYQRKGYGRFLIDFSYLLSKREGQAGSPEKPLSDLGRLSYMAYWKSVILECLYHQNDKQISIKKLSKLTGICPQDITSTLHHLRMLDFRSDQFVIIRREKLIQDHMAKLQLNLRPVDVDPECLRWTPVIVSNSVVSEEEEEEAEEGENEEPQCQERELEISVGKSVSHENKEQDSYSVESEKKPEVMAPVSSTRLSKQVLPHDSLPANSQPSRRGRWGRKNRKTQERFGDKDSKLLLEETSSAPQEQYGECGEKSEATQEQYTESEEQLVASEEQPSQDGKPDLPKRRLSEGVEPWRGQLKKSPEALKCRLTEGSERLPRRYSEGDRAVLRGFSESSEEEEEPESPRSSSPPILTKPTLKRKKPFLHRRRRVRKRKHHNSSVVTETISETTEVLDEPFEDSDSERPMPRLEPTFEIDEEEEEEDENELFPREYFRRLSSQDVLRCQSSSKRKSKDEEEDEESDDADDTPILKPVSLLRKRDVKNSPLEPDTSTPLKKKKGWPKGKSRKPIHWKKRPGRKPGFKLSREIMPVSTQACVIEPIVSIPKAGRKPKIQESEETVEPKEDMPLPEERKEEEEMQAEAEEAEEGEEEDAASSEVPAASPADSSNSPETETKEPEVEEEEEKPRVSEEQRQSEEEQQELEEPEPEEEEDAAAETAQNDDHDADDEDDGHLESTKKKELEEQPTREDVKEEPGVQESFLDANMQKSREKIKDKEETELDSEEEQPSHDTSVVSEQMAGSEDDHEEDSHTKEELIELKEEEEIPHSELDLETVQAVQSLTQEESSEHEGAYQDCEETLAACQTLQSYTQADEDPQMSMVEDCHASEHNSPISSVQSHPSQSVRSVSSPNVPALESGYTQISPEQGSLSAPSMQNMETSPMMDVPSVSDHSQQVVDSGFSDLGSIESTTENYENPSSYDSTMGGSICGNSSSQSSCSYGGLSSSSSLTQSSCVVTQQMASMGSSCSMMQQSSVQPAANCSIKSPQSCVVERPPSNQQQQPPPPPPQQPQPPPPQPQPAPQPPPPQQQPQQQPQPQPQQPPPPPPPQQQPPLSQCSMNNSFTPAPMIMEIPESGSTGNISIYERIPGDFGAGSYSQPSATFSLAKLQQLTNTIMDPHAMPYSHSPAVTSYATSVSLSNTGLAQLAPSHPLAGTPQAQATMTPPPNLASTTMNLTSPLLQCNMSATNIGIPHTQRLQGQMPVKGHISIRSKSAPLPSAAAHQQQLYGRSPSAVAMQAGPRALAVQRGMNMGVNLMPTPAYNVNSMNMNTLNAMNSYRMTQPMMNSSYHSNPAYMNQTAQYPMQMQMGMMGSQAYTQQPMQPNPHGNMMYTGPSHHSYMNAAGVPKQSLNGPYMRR
UniProt P46937: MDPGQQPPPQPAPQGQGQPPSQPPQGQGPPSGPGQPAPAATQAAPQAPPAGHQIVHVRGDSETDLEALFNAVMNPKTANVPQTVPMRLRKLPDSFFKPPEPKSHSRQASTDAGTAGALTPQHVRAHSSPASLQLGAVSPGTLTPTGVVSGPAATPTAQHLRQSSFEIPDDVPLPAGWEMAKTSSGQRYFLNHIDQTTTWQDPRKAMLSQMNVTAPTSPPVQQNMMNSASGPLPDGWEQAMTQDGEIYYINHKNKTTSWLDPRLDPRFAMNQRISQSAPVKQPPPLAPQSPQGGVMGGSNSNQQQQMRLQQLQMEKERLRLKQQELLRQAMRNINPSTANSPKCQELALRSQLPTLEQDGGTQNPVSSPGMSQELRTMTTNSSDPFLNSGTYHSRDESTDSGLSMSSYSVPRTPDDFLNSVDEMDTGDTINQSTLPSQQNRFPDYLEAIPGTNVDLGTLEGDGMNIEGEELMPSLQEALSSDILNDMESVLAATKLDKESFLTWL

No constants are given. Whether binding was seen depends on the method and setting. Binding seen in cells or lysates may run through a third protein. Some binding calls cover weakened binding; strength is not graded here.

The target in the test is KAT6A (human (endogenous in PDLSCs)) (UniProt Q92794). The experiment in a line: co-IP; endogenous KAT6A and YAP in PDLSC lysate, protein A-Sepharose beads, overnight 4 °C, control IgG as negative control, western blot; also after mechanical force loading (binding increased). A general note: In western blotting, separated proteins are transferred to a membrane and probed.

With YAP (from UniProt P46937 1-504), the binding result was “binds”.
